No constants are given. Whether binding was seen depends on the method and setting. In cells and extracts the contact can be indirect. Some entries that bind do so weakly or less than the wild type. Where a sequence is shown, tags or fusion partners need not be part of it.
Molecular target: cYFP-AtSKP1 (Arabidopsis thaliana) (UniProt Q39255)
Assay: split reporter; ratiometric BiFC (rBiFC) in N. benthamiana leaves; both partners N-terminally fused to split YFP in one 2in1 vector with a constitutive RFP cassette; YFP/RFP ratio in the nucleus

Chains of the proteins cited; added tags and fusions are not shown.
UniProt Q39255: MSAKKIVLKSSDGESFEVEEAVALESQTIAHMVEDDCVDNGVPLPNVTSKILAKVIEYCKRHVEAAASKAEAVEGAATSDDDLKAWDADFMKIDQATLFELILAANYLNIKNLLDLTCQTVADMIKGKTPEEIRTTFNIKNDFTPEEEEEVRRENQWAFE

- binding: binds
B1: nYFP-AtMAX2 (protein, UniProt Q9SIM9 1-693)
chain: MASTTLSDLPDVILSTISSLVSDSRARNSLSLVSHKFLALERSTRSHLTIRGNARDLSLVPDCFRSISHLDLSFLSPWGHTLLASLPIDHQNLLALRLKFCFPFVESLNVYTRSPSSLELLLPQWPRIRHIKLLRWHQRASQIPTGGDFVPIFEHCGGFLESLDLSNFYHWTEDLPPVLLRYADVAARLTRLDLLTASFTEGYKSSEIVSITKSCPNLKTFRVACTFDPRYFEFVGDETLSAVATSSPKLTLLHMVDTASLANPRAIPGTEAGDSAVTAGTLIEVFSGLPNLEELVLDVGKDVKHSGVALEALNSKCKKLRVLKLGQFQGVCSATEWRRLDGVALCGGLQSLSIKNSGDLTDMGLVAIGRGCCKLTTFEIQGCENVTVDGLRTMVSLRSKTLTDVRISCCKNLDTAASLKAIEPICDRIKRLHIDCVWSGSEDEEVEGRVETSEADHEEEDDGYERSQKRCKYSFEEEHCSTSDVNGFCSEDRVWEKLEYLSLWINVGEFLTPLPMTGLDDCPNLEEIRIKIEGDCRGKRRPAEPEFGLSCLALYPKLSKMQLDCGDTIGFALTAPPMQMDLSLWERFFLTGIGSLSLSELDYWPPQDRDVNQRSLSLPGAGLLQECLTLRKLFIHGTAHEHFMNFLLRIPNLRDVQLRADYYPAPENDMSTEMRVGSCSRFEDQLNSRNIID

Source: article PMC11085264
